Laboratory results reported in article PMC4980022.

Chains of the proteins cited; added tags and fusions are not shown. Lines headed by an entry give the natural chain unless they say otherwise; changes in a name come on top.
UniProt B2RLE8: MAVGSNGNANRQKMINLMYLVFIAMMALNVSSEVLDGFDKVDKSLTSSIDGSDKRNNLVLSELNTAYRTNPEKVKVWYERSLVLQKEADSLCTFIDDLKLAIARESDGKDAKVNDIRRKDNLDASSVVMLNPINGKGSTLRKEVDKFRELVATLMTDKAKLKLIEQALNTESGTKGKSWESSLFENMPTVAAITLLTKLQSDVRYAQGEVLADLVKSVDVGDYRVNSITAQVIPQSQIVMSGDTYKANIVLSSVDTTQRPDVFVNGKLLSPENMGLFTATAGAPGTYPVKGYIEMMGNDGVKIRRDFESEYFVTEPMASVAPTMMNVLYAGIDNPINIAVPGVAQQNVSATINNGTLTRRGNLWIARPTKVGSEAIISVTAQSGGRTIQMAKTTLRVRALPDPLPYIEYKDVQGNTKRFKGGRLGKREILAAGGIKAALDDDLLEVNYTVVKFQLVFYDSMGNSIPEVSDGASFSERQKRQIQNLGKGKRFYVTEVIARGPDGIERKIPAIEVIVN

Target: T1, PorL-myc (Porphyromonas gingivalis ATCC 33277) (UniProt B2RLE9)
T1 sequence: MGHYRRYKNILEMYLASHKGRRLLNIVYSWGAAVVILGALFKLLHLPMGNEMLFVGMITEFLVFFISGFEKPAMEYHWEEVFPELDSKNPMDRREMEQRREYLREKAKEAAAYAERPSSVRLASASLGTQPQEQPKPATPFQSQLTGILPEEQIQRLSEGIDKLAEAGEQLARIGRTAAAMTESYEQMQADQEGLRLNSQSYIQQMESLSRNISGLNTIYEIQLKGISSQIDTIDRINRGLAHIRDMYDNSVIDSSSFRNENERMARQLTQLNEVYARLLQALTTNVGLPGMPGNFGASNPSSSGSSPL
Experiment: co-IP; porL/porL’-‘myc P. gingivalis lysed in 1% DDM, Myc agarose 1 hour at 4°C, lysozyme treatment, elution with SDS loading buffer or myc peptide; bands on SDS-PAGE identified by MS; wild type as negative control

PorN
binding: no binding

PorM (from UniProt B2RLE8)
binding: binds

Results are given in words; binding and its absence hold for the method and conditions named. In cells and extracts the contact can be indirect. Binding can be weak; no strength is given. Tags and fused reporters may be left off the sequences shown.
